Measurements published in PubChem BioAssay AID248 (DTP/NCI, 2004).
The list is a part of this screen's results and no random one: it gathers some chemical classes. Other doses and runs of a compound may be missing. T/C is the treated group as % of the vehicle group. Some entries give survivors of the animals treated and no T/C: the source holds a T/C of zero for them, seemingly a mark for toxic or unscored doses. Counts of survivors are from the toxicity check (mostly the fifth day) where no day follows; animals may have died later. Schedule codes are those of the source, read here as Q, the interval in days (D) or hours (H), X, the number of doses. Where survival is the endpoint, this PubChem deposit counts one and a half times the control or more as active, and values a quarter to a half above the control carry no call in these data; other NCI protocols may use other cut-offs. Some T/C values are marked as having no survivor count here; that says nothing about deaths at the dose. Some entries hold several experiments; the results are listed from low to high. Some T/C values carry the count of animals alive at the toxicity check (mostly the fifth day); where neither a count nor a note follows, no animal had died by that day. Some complexes appear as separate parts, the way the source draws them; their charges need not add up.

Tested on: L1210 leukemia ip in BDF1 mice, survival T/C
Test: NCI In Vivo Anticancer Drug Screen. Data for tumor model L1210 Leukemia (intraperitoneal) in B6D2F1 (BDF1) mice
Conditions: higher T/C = longer survival
[1] = T/C endpoint: mean survival time, dose: 100.0 mg/kg/injection, schedule: Q01DX001 (ip), vehicle: saline
[2] = T/C endpoint: mean survival time, dose: 200.0 mg/kg/injection, schedule: Q01DX001 (ip), vehicle: saline
[3] = T/C endpoint: mean survival time, dose: 400.0 mg/kg/injection, schedule: Q01DX001 (ip), vehicle: saline
[4] = T/C endpoint: mean survival time, dose: 50.0 mg/kg/injection, schedule: Q04DX003 (ip), vehicle: saline
[5] = T/C endpoint: mean survival time, dose: 100.0 mg/kg/injection, schedule: Q04DX003 (ip), vehicle: saline
[6] = T/C endpoint: mean survival time, dose: 200.0 mg/kg/injection, schedule: Q04DX003 (ip), vehicle: saline

In the case of `O=P(Cl)(N1CCCC1)N1CCCC1`, the T/C (T/C endpoint: mean survival time, dose: 100.0 mg/kg/injection, schedule: Q04DX002 (ip), vehicle: saline with Tween-80) is reported as 103 % of control, the T/C (T/C endpoint: mean survival time, dose: 200.0 mg/kg/injection, schedule: Q04DX002 (ip), vehicle: saline with Tween-80) is reported as 103 % of control and the T/C (T/C endpoint: mean survival time, dose: 400.0 mg/kg/injection, schedule: Q04DX002 (ip), vehicle: saline with Tween-80) is reported as 100 % of control [2 of 3 alive].

In the case of `CS(=O)(=O)N[C@@H](CCl)[C@H](CCl)NS(C)(=O)=O`, the T/C [1] is reported as 100 % of control, the T/C [2] is reported as 96 % of control and the T/C [3] is reported as 102 % of control.

With `O=C(NCCF)N[N+](=O)[O-]` the T/C (T/C endpoint: mean survival time, dose: 7.5 mg/kg/injection, schedule: Q01DX001 (ip), vehicle: saline) was 120 % of control, the T/C (T/C endpoint: mean survival time, dose: 15.0 mg/kg/injection, schedule: Q01DX001 (ip), vehicle: saline) was 111 % of control and the T/C (T/C endpoint: mean survival time, dose: 30.0 mg/kg/injection, schedule: Q01DX001 (ip), vehicle: saline) was 108 % of control. The T/C (T/C endpoint: mean survival time, dose: 62.0 mg/kg/injection, schedule: Q01DX001 (ip), vehicle: saline) was 97 % of control, the T/C (T/C endpoint: mean survival time, dose: 125.0 mg/kg/injection, schedule: Q01DX001 (ip), vehicle: saline) was 108 % of control and the T/C (T/C endpoint: mean survival time, dose: 250.0 mg/kg/injection, schedule: Q01DX001 (ip), vehicle: saline) was 103 % of control. The T/C (T/C endpoint: mean survival time, dose: 375.0 mg/kg/injection, schedule: Q01DX001 (ip), vehicle: saline) was 103 % of control and the survivor count (T/C endpoint: mean survival time, dose: 500.0 mg/kg/injection, schedule: Q01DX001 (ip), vehicle: saline) was 1 of 6.

In the case of `O=C(Nc1ccc([N+](=O)[O-])cc1[N+](=O)[O-])Nc1ccc([N+](=O)[O-])cc1[N+](=O)[O-]`, the T/C (T/C endpoint: mean survival time, dose: 100.0 mg/kg/injection, schedule: Q01DX009 (ip), vehicle: saline with Tween-80) is reported as 101 % of control, the T/C (T/C endpoint: mean survival time, dose: 100.0 mg/kg/injection, schedule: Q04DX003 (ip), vehicle: Klucel (hydroxypropylcellulose) (HPC)) is reported as 87 % of control and the T/C (T/C endpoint: mean survival time, dose: 200.0 mg/kg/injection, schedule: Q01DX009 (ip), vehicle: saline with Tween-80) is reported as 101 % of control. For the same molecule, the T/C (T/C endpoint: mean survival time, dose: 200.0 mg/kg/injection, schedule: Q04DX003 (ip), vehicle: Klucel (hydroxypropylcellulose) (HPC)) was 92 % of control, the T/C (T/C endpoint: mean survival time, dose: 400.0 mg/kg/injection, schedule: Q01DX009 (ip), vehicle: saline with Tween-80) was 100 % of control and the T/C (T/C endpoint: mean survival time, dose: 400.0 mg/kg/injection, schedule: Q04DX003 (ip), vehicle: Klucel (hydroxypropylcellulose) (HPC)) was 113 % of control.

`Cc1cccc(OP(=S)(Cl)Oc2cccc(C)c2)c1` was tested, and the T/C (T/C endpoint: mean survival time, dose: 100.0 mg/kg/injection, schedule: Q01DX009 (ip), vehicle: Klucel (hydroxypropylcellulose) (HPC)) was 101 % of control, the T/C (T/C endpoint: mean survival time, dose: 200.0 mg/kg/injection, schedule: Q01DX009 (ip), vehicle: Klucel (hydroxypropylcellulose) (HPC)) was 100 % of control and the survivor count (T/C endpoint: mean survival time, dose: 400.0 mg/kg/injection, schedule: Q01DX009 (ip), vehicle: Klucel (hydroxypropylcellulose) (HPC)) was 0 of 6.

For `O=P(Cl)(Nc1ccccc1)Nc1ccccc1`, the T/C (T/C endpoint: mean survival time, dose: 100.0 mg/kg/injection, schedule: Q04DX003 (ip), vehicle: saline with Tween-80, evaluated on day 20) was 101 % of control, the T/C (T/C endpoint: mean survival time, dose: 100.0 mg/kg/injection, schedule: Q04DX003 (ip), vehicle: saline with Tween-80, evaluated on day 30) was 92 % of control and the T/C (T/C endpoint: mean survival time, dose: 200.0 mg/kg/injection, schedule: Q04DX003 (ip), vehicle: saline with Tween-80, evaluated on day 20) was 103 % of control. For the same molecule, the T/C (T/C endpoint: mean survival time, dose: 200.0 mg/kg/injection, schedule: Q04DX003 (ip), vehicle: saline with Tween-80, evaluated on day 30) was 101 % of control, the T/C (T/C endpoint: mean survival time, dose: 400.0 mg/kg/injection, schedule: Q04DX003 (ip), vehicle: saline with Tween-80, evaluated on day 20) was 101 % of control and the T/C (T/C endpoint: mean survival time, dose: 400.0 mg/kg/injection, schedule: Q04DX003 (ip), vehicle: saline with Tween-80, evaluated on day 30) was 97 % of control.

For `O=Cc1c([N+](=O)[O-])cc([N+](=O)[O-])cc1[N+](=O)[O-]`, the T/C (T/C endpoint: mean survival time, dose: 4.0 mg/kg/injection, schedule: Q01DX015 (ip), vehicle: carboxymethylcellulose (CMC)) was 96 % of control [survivor count not shown], the T/C (T/C endpoint: mean survival time, dose: 8.0 mg/kg/injection, schedule: Q01DX015 (ip), vehicle: carboxymethylcellulose (CMC)) was 98 % of control [survivor count not shown] and the T/C (T/C endpoint: mean survival time, dose: 16.0 mg/kg/injection, schedule: Q01DX015 (ip), vehicle: carboxymethylcellulose (CMC)) was 94 % of control [survivor count not shown]. The T/C (T/C endpoint: mean survival time, dose: 32.0 mg/kg/injection, schedule: Q01DX015 (ip), vehicle: carboxymethylcellulose (CMC)) was 100 [survivor count not shown] and 104 % of control [survivor count not shown].

With `CC(C)c1nc(Nc2ccccc2)n(P(=O)(N(C)C)N(C)C)n1` the T/C (T/C endpoint: mean survival time, dose: 1.5 mg/kg/injection, schedule: Q01DX009 (ip), vehicle: saline) was 98 % of control, the T/C (T/C endpoint: mean survival time, dose: 1.5 mg/kg/injection, schedule: Q04DX003 (ip), vehicle: saline) was 101 % of control and the T/C (T/C endpoint: mean survival time, dose: 3.0 mg/kg/injection, schedule: Q01DX009 (ip), vehicle: saline) was 100 % of control. For the same molecule, the T/C (T/C endpoint: mean survival time, dose: 3.0 mg/kg/injection, schedule: Q04DX003 (ip), vehicle: saline) was 106 % of control, the T/C (T/C endpoint: mean survival time, dose: 6.0 mg/kg/injection, schedule: Q01DX009 (ip), vehicle: saline) was 109 % of control and the T/C (T/C endpoint: mean survival time, dose: 6.0 mg/kg/injection, schedule: Q04DX003 (ip), vehicle: saline) was 103 % of control. The survivor count (T/C endpoint: mean survival time, dose: 12.5 mg/kg/injection, schedule: Q04DX003 (ip), vehicle: saline) was 1 of 6, the survivor count (T/C endpoint: mean survival time, dose: 25.0 mg/kg/injection, schedule: Q04DX003 (ip), vehicle: saline) was 0 of 6 and the survivor count [4] was 0 of 6. The survivor count [5] was 0 of 6, the survivor count [6] was 0 of 6 and the survivor count (T/C endpoint: mean survival time, dose: 400.0 mg/kg/injection, schedule: Q04DX003 (ip), vehicle: saline) was 0 of 6.

`COP(OC)N1CC1` was tested, and the survivor count [1] was 3 of 6, the survivor count [2] was 0 of 6 and the survivor count [3] was 0 of 6.

For `CCOP(=O)(NC(=S)N1CC1)NC(=S)N1CC1`, the T/C (T/C endpoint: mean survival time, dose: 100.0 mg/kg/injection, schedule: Q01DX001 (ip), vehicle: carboxymethylcellulose (CMC)) was 96 % of control, the survivor count (T/C endpoint: mean survival time, dose: 200.0 mg/kg/injection, schedule: Q01DX001 (ip), vehicle: carboxymethylcellulose (CMC)) was 0 of 6 and the survivor count (T/C endpoint: mean survival time, dose: 400.0 mg/kg/injection, schedule: Q01DX001 (ip), vehicle: carboxymethylcellulose (CMC)) was 0 of 6.

With `C1COP(OCCOP2OCCO2)O1` the T/C (T/C endpoint: mean survival time, dose: 50.0 mg/kg/injection, schedule: Q01DX009 (ip), vehicle: saline) was 98 % of control [5 of 6 alive], the T/C [4] was 100 % of control and the T/C (T/C endpoint: mean survival time, dose: 100.0 mg/kg/injection, schedule: Q01DX009 (ip), vehicle: saline) was 94 % of control. For the same molecule, the T/C [5] was 100 % of control, the survivor count (T/C endpoint: mean survival time, dose: 200.0 mg/kg/injection, schedule: Q01DX009 (ip), vehicle: saline) was 3 of 6 and the T/C [6] was 94 % of control.

For `COc1ccc(C(=O)OCCNCCCl)cc1`, the T/C (T/C endpoint: median survival time, dose: 100.0 mg/kg/injection, schedule: Q01DX009 (ip), vehicle: saline) was 110 % of control, the T/C (T/C endpoint: median survival time, dose: 200.0 mg/kg/injection, schedule: Q01DX009 (ip), vehicle: saline) was 104 % of control and the T/C (T/C endpoint: median survival time, dose: 400.0 mg/kg/injection, schedule: Q01DX009 (ip), vehicle: saline) was 110 % of control.

For `CCP1(=O)Nc2ccccc2S1` (stereo not given), the T/C (T/C endpoint: mean survival time, dose: 75.0 mg/kg/injection, schedule: Q01DX001 (ip), vehicle: saline) was 101 % of control [survivor count not shown] and the T/C (T/C endpoint: mean survival time, dose: 150.0 mg/kg/injection, schedule: Q01DX001 (ip), vehicle: saline) was 100 % of control [survivor count not shown].

In the case of `NC(=O)c1cc(Cl)cc(Cl)c1N1CC[N+](CCCl)=N1.NC(=O)c1cc(Cl)cc(Cl)c1N=NN(CCCl)CCCl`, the T/C (T/C endpoint: mean survival time, dose: 100.0 mg/kg/injection, schedule: Q04DX003 (ip), vehicle: saline with Tween-80) is reported as 97 % of control, the T/C (T/C endpoint: mean survival time, dose: 200.0 mg/kg/injection, schedule: Q04DX003 (ip), vehicle: saline with Tween-80) is reported as 100 % of control and the T/C (T/C endpoint: mean survival time, dose: 400.0 mg/kg/injection, schedule: Q04DX003 (ip), vehicle: saline with Tween-80) is reported as 106 % of control.
